Laboratory results: PubChem BioAssay AID504793 (Drosophila RNAi Screening Center, 2011)

Purpose: 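Knock-downs allowing continued mitosis even though DNA is damaged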 (primary screen)
Cell system: Drosophila S2R+ cells
Reagents: long dsRNA against Drosophila genes, about 0.25 µg dsRNA per well
Duration: 4 days of dsRNA, then 4 hours of drug before read-out
Conditions: doxorubicin 0.5 µM for 4 hours to cause double-strand breaks, in cells also given a low, harmless dose of dsRNA against nbs to sensitise the assay
Read-out: 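Mitotic index as the number of phospho-histone H3-positive cells in each well following doxorubicin, given as raw counts without normalisation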
Direction: mitotic cells: higher = more cells in mitosis, weaker G2 arrest
Rule for the call: 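a call needs confirmation in secondary tests, with other dsRNAs and a check of mitotic timing without damage, not just a high primary count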
Calls: active = confirmed in follow-up tests; inactive = not confirmed
The deposit covers about 23,000 reagents; shown is a random part of those that have a named target and a result. Of all reagents, 62 (0.27%) are marked active. 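Calls come from follow-up tests whose scores are not deposited, so confirmed genes may have low counts here; counts are not normalised per plate.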 Raw values are not corrected between plates. Names joined by + are all predicted targets of the reagent. Reagent sequences are not shown.

The first 3 entries, to show the layout:
no.	Gene	amplicon	mitotic cells, replicate 1	activity call
1	goe	DRSC19345	12	inactive
2	goe	DRSC29879	8	inactive
3	salto	DRSC06291	3	inactive

The list itself, from the first entry:
no.	Gene	amplicon	mitotic cells, replicate 1	activity call
1	goe	DRSC19345	12	inactive
2	goe	DRSC29879	8	inactive
3	salto	DRSC06291	3	inactive
4	salto	DRSC29983	13	inactive
5	Bin1	DRSC16843	5	inactive
6	EloA	DRSC16109	11	inactive
7	EloA	DRSC23920	4	inactive
8	CG7829	DRSC16322	3	inactive
9	CG7829	DRSC28615	7	inactive
10	CG42634 + CG42635	DRSC02450	7	inactive
11	Ir51a	DRSC06256	8	inactive
12	Clbn	DRSC14404	8	inactive
13	CG14219	DRSC19576	17	inactive
14	CG14219	DRSC26450	11	inactive
15	CG7963	DRSC16355	3	inactive
16	CG9346	DRSC04542	11	inactive
17	amx	DRSC23466	4	inactive
18	ValRS	DRSC06864	8	inactive
19	kek4	DRSC03220	2	inactive
20	CG34175	DRSC00424	2	inactive
21	CG2712	DRSC18589	5	inactive
22	CG5347	DRSC19942	12	inactive
23	Vps36	DRSC09785	6	inactive
24	Marc	DRSC06614	14	inactive
25	vls	DRSC02101	3	inactive
26	vls	DRSC27088	11	inactive
27	CG32486	DRSC08413	8	inactive
28	CG32486	DRSC08488	2	inactive
29	Gapvd1	DRSC19752	12	inactive
30	Gapvd1	DRSC24025	4	inactive
31	CG5882	DRSC15907	22	inactive
32	Ehbp1	DRSC06561	5	inactive
33	Ehbp1	DRSC30006	12	inactive
34	CG5665	DRSC11783	6	inactive
35	Cdk9	DRSC04601	8	inactive
36	ND-20L	DRSC15414	9	inactive
37	bchs	DRSC03126	6	inactive
38	Dif	DRSC03316	6	inactive
39	CG3793	DRSC01982	10	inactive
40	CG13014	DRSC19533	8	inactive
41	CG13014	DRSC24448	9	inactive
42	CG18180	DRSC10304		inactive
43	CG18180	DRSC25404	11	inactive
44	Mtch	DRSC08679	2	inactive
45	CG9578	DRSC20694	6	inactive
46	CG9578	DRSC29540	2	inactive
